This passage reports binding results from PMC3946688.

Chains of the proteins cited; added tags and fusions are not shown.
UniProt P61244: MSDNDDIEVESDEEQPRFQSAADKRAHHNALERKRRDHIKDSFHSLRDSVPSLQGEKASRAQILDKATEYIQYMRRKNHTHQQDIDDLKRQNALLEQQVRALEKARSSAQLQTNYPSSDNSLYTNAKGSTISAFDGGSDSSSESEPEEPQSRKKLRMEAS

Assay [1] addresses T1, Flag-tagged N-Myc (wild type, mouse cDNA) (mouse) (UniProt P03966).
T1 sequence: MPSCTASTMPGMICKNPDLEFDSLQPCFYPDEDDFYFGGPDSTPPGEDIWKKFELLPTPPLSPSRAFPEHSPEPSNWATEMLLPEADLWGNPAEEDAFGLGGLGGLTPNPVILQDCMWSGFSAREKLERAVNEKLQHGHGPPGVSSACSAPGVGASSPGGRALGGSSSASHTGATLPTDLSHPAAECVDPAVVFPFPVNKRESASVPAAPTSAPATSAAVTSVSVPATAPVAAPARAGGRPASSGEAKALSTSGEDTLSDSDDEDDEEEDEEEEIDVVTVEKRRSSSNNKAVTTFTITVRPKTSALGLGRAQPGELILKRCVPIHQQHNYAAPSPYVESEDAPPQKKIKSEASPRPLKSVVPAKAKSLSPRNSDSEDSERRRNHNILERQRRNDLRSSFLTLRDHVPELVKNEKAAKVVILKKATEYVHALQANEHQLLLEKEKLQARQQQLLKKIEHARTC
Put plainly: co-IP; 293T cells transfected with Flag-N-Myc (WT or K349R), with or without co-transfected SUMO-2 expression vector; non-denaturing co-IP lysis buffer (50 mM Tris pH 8, 5 mM EDTA, 150 mM NaCl, 0.5% NP-40, 5 mM NEM, 20 mM IAA); immunoprecipitation with anti-Flag M1 beads, immunoblot for endogenous Max. For orientation: In western blotting, separated proteins are transferred to a membrane and probed.

The target of assay [2] is T2, Flag-tagged N-Myc K349R (mouse cDNA) (mouse) (UniProt P03966).
T2 sequence: T1 sequence with K349R
Described as above.

Substitutions are numbered along the chain they refer to. Results are given in words; binding and its absence hold for the method and conditions named. Binding seen in cells or lysates may run through a third protein. Some results given as binding are weak or reduced against the parent protein; the word gives no strength. Sequences can lack the tags named with a protein.

In the case of “endogenous Max (from UniProt P61244 1-160)”, the binding entry in assay [1] and in assay [2] was “binds” each time.
